Source: paper doi:10.1101/2020.12.29.424679 (bioRxiv, 2020)
Results are given in words; binding and its absence hold for the method and conditions named. In cells and extracts the contact can be indirect. Some binding calls cover weakened binding; strength is not graded here. For some assays here: Tags and fused reporters may be left off the sequences shown.

The chains behind the UniProt entries cited, without tags or fusion partners.
UniProt P97929: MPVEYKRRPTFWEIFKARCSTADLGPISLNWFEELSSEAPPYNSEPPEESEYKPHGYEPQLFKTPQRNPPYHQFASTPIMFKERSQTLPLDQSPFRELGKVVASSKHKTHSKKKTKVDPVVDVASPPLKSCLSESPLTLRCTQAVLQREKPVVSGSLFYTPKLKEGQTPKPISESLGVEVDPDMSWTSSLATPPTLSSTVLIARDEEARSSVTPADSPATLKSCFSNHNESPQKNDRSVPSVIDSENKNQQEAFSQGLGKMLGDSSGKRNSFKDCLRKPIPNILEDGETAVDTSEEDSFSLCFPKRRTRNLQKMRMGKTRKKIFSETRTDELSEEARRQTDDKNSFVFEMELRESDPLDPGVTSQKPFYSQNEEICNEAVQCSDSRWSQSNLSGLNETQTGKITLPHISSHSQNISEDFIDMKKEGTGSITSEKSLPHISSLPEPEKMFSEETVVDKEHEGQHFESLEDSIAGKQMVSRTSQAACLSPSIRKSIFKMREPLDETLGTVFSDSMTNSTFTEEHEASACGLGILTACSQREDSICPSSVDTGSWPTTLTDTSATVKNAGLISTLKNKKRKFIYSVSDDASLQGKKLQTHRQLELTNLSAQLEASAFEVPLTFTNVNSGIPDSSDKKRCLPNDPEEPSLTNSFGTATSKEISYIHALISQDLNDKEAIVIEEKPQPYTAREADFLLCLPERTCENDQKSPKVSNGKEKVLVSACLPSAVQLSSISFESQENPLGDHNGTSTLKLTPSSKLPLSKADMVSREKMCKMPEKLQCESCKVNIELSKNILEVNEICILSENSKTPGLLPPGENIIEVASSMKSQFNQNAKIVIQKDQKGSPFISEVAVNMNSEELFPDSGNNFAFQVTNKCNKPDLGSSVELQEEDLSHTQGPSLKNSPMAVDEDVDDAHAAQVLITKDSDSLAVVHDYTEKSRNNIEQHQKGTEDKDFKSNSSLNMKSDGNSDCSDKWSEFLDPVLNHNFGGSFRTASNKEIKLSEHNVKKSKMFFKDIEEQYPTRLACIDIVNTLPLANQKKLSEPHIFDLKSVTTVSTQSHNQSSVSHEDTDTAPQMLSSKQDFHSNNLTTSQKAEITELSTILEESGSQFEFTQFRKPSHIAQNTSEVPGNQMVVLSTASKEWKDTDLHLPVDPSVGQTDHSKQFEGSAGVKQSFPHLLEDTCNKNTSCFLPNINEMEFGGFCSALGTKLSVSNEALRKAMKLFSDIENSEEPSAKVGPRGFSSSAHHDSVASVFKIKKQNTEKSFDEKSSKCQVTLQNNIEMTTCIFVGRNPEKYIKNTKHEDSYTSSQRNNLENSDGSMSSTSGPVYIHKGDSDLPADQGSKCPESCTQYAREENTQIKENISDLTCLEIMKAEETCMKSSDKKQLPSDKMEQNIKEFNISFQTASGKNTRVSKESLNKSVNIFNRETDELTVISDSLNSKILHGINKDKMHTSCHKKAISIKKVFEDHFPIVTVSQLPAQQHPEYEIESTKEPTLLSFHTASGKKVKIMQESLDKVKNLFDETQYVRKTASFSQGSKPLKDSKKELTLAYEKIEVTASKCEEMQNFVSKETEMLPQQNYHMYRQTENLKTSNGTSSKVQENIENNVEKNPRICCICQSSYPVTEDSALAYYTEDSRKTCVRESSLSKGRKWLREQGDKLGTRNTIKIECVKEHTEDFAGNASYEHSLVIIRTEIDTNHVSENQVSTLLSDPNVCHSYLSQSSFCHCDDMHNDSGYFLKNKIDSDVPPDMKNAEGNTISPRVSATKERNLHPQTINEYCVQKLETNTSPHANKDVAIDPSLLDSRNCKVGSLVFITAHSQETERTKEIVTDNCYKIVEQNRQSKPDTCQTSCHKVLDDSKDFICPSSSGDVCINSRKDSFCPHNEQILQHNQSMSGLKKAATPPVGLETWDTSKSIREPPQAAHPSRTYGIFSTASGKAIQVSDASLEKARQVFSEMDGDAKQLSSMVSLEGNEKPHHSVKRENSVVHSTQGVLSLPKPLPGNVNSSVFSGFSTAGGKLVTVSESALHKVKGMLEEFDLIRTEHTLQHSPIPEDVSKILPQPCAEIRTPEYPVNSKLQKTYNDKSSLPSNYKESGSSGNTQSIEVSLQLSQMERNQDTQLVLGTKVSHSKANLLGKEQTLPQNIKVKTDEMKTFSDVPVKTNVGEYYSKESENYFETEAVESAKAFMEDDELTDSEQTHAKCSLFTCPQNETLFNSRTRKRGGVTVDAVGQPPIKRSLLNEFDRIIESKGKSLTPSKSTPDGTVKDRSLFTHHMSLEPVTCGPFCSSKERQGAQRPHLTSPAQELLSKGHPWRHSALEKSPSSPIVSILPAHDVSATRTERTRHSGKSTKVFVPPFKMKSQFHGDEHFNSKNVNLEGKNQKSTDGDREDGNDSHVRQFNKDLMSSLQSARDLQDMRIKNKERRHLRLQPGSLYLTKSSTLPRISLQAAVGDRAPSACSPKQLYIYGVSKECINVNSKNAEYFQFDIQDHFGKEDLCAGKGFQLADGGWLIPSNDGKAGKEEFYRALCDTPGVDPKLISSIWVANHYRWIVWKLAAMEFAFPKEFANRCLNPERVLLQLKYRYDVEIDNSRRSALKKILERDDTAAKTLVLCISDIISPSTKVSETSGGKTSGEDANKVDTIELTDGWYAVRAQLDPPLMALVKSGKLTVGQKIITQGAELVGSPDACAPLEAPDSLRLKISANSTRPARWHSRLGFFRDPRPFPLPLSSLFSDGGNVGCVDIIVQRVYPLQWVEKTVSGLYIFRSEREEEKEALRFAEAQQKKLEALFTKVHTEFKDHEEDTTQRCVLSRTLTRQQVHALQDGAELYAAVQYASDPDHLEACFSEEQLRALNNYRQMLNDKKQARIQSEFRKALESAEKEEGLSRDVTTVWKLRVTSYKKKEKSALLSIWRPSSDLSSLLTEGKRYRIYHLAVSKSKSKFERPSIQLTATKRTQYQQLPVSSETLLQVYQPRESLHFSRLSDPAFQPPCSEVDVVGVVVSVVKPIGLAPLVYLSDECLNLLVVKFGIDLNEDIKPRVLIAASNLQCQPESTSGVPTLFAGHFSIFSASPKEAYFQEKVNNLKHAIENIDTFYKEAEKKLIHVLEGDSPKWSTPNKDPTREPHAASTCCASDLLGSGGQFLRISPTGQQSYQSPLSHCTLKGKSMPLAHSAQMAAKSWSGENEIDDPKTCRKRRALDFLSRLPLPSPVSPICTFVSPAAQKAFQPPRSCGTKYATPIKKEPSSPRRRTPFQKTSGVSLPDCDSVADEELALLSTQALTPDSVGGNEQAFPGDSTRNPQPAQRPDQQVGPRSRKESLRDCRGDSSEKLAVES

T1: Mouse HSF2BP-GFP (mouse (knock-in allele in mES cells)) (UniProt Q9D4G2)
T1 sequence: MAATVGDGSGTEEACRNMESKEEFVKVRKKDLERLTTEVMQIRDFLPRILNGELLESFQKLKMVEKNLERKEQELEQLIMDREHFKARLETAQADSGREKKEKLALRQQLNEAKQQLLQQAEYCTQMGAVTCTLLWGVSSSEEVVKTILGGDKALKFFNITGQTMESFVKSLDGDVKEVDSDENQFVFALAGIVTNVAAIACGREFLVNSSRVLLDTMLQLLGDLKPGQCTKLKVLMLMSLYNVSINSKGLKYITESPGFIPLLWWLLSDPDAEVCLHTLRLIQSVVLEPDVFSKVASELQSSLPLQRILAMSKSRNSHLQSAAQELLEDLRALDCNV


Legend:
[1] = target: T1, Mouse HSF2BP-GFP (mouse (knock-in allele in mES cells)); assay: co-IP
[2] = target: Mouse full-length BRCA2-GFP (mouse (knock-in allele in mES cells)) (UniProt P97929); assay: co-IP

binding [1] | binding [2] | Molecule
binds |  | Mouse BRCA2 (Brca2 wt/wt) (from UniProt P97929 1-3329)
 | binds | Mouse HSF2BP, natively expressed in ES cells (protein, UniProt Q9D4G2 1-338) MAATVGDGSGTEEACRNMESKEEFVKVRKKDLERLTTEVMQIRDFLPRILNGELLESFQKLKMVEKNLERKEQELEQLIMDREHFKARLETAQADSGREKKEKLALRQQLNEAKQQLLQQAEYCTQMGAVTCTLLWGVSSSEEVVKTILGGDKALKFFNITGQTMESFVKSLDGDVKEVDSDENQFVFALAGIVTNVAAIACGREFLVNSSRVLLDTMLQLLGDLKPGQCTKLKVLMLMSLYNVSINSKGLKYITESPGFIPLLWWLLSDPDAEVCLHTLRLIQSVVLEPDVFSKVASELQSSLPLQRILAMSKSRNSHLQSAAQELLEDLRALDCNV
